Counter-ions that a name gives are not always drawn. Some of the results follow. Small differences around the control level are noise.
Columns and labels:
Details in all cases: 5 µM; treatment: days 7-14 after plating, readout day 21
[1] = system: hPSC-derived cortical neurons (WA09); test: nucleus area z-score vs screen plate; higher = larger nuclei (more mature)
[2] = system: hPSC-derived cortical neurons (WA09); test: total neurite length per nucleus (MAP2) z-score; higher = more neurite growth
[3] = system: hPSC-derived cortical neurons (WA09); test: nucleus roundness z-score vs screen plate; higher = rounder nuclei (more mature)
[4] = system: hPSC-derived cortical neurons (WA09); test: KCl-induced FOS+/EGR-1+ double-positive nuclei fraction z-score (KCl minus unstimulated); higher = stronger activity-induced IEG response

| SMILES | nucleus area z-score [1] | total neurite length per nucleus (z-score) [2] | nucleus roundness z-score [3] | KCl-induced FOS+/EGR-1+ double-positive nuclei fraction z-score [4] |
| --- | --- | --- | --- | --- |
| CCCCCCCCC/C(=C\C1=C(C)C(=O)C(OC)=C(OC)C1=O)C(=O)O | 1.13 | 1.74 | 0.583 | 2.34 |
| COC(=O)[C@H]1[C@H]2C[C@@H]3c4[nH]c5cc(OC)ccc5c4CCN3C[C@H]2C[C@@H](OC(=O)c2cc(OC)c(OC)c(OC)c2)[C@@H]1OC [Reserpine] | -1.19 | -1.72 | -3.4 | -1.15 |
| CN1CCN(CCCN2c3ccccc3Sc3ccc(C(F)(F)F)cc32)CC1 [Trifluoperazine 2HCl] | -3.55 | -2.83 | -1.81 | -2 |
| O[C@@H]1CO[C@H]2[C@@H]1OC[C@@H]2O [Isosorbide] | -0.281 | 0.103 | 0.617 | -0.296 |
| CC(CCc1ccc(O)cc1)NCC(O)c1ccc(O)cc1 (configuration not stated) [Ractopamine HCl] | 0.44 | 0.908 | 0.311 | 0.748 |
| CC(C)c1onc(-c2c(Cl)cccc2Cl)c1COc1ccc(/C=C/c2cccc(C(=O)O)c2)c(Cl)c1 | 1.3 | -1.37 | -1.08 | -1.02 |
| Cc1nc(-c2ccc(OCC(C)C)c(C#N)c2)sc1C(=O)O [Febuxostat] | 0.99 | 0.000721 | -0.316 | 0.896 |
| CCCC(C)NC(=O)c1ccc(Cl)c(Cl)c1 (configuration not stated) | 1.83 | 1.87 | 0.472 | 2.17 |
| COc1cc2ncnc(Oc3ccc(CC(=O)Nc4cnn(C(C)C)c4)cc3)c2cc1OC | 0.465 | -0.118 | -0.211 | -0.274 |
| NC1(c2ccc(-c3nc4ccn5c(=O)[nH]nc5c4cc3-c3ccccc3)cc2)CCC1 | -2.16 | -1.08 | -1.07 | -0.197 |
| Nc1c2ccccc2nc2ccccc12 [9-Aminoacridine] | 1.48 | 0.118 | -0.567 | -0.0783 |
| COC(=O)C1=C(C)NC(C)=C(C(=O)OC(C)C)C1c1cccc2nonc12 (configuration not stated) [Isradipine] | -0.968 | -1.55 | -1.94 | 0.0863 |
| CO[C@@]12[C@H](COC(N)=O)C3=C(C(=O)C(C)=C(N)C3=O)N1C[C@@H]1N[C@@H]12 [Mitomycin C] | -17 | -6.69 | -2.22 | 12.8 |
| CCC[C@@H]1C[C@@H](C(=O)N[C@@H]([C@H]2O[C@H](SC)[C@H](OP(=O)(O)O)[C@@H](O)[C@H]2O)[C@H](C)Cl)N(C)C1 [Clindamycin Phosphate] | 0.286 | 0.813 | 0.316 | 1.57 |
| Cc1ccc(C(=O)N(CCCN)[C@@H](c2oc3cc(Cl)ccc3c(=O)c2Cc2ccccc2)C(C)C)cc1 | -16.4 | -6.62 | -11.1 | -0.683 |
| COc1nc(-c2ccc3c(c2)OCO3)n(-c2ccc(NC(=O)CSc3ccccc3)cc2)n1 [SecinH3] | 0.499 | 0.273 | -0.0944 | -0.195 |
| C[C@]12CC[C@@H]3c4ccc(OC(=O)c5ccccc5)cc4CC[C@H]3[C@@H]1CC[C@@H]2O [Estradiol Benzoate] | 1.55 | -0.336 | 0.144 | 0.0887 |
| CN(C/C=C/C#CC(C)(C)C)Cc1cccc2ccccc12 [Terbinafine HCl] | -0.774 | -1.18 | -1.4 | -0.392 |
| O=c1oc2cc(O)ccc2s1 [Tioxolone] | 0.377 | 0.472 | -0.262 | -0.853 |
| CC/C(=C(/CC)c1ccc(O)cc1)c1ccc(O)cc1 [Diethylstilbestrol] | -0.356 | 0.458 | 1.13 | -0.706 |
| Clc1cccc(-c2nnnn2Cc2cccnc2)c1Cl | -0.244 | -0.19 | 0.0682 | 0.803 |
| O=c1cc(-c2ccccc2)oc2cc(O)c(O)c(O)c12 [Baicalein] | 0.109 | -0.423 | -0.39 | -0.522 |
| OCCn1cc(-c2cnc3nnn(Cc4ccc5ncccc5c4)c3n2)cn1 | 0.121 | 0.7 | 0.887 | 0.86 |
| COc1ccc(C2=N[C@@H](c3ccc(Cl)cc3)[C@@H](c3ccc(Cl)cc3)N2C(=O)N2CCNC(=O)C2)c(OC(C)C)c1 [Nutlin-3] | -0.462 | 0.131 | 0.103 | 0.292 |
| O=C(O)c1ccc(-n2nc(-c3ccccc3O)nc2-c2ccccc2O)cc1 [Deferasirox] | -0.623 | 1.78 | 1.3 | 2.49 |
| CC(C)(C#N)c1ccc(N2C(=O)OCc3cnc4ccc(-c5cnc6ccccc6c5)cc4c32)cc1 | 0.816 | 1 | 2.22 | 4.67 |
| Cn1ncc(Cl)c1-c1cc(C(=O)N[C@H](CN)Cc2cccc(F)c2)sc1Cl | -6.01 | -2.48 | -2.08 | -0.447 |
| COc1c(O)cc2c(c1O)[C@@H]1O[C@H](CO)[C@@H](O)[C@H](O)[C@H]1OC2=O [Bergenin] | 0.17 | 0.143 | 0.0324 | 0.29 |

Rewritten as tab-separated lines: seven of the compounds above.
SMILES	nucleus area z-score [1]	total neurite length per nucleus (z-score) [2]	nucleus roundness z-score [3]	KCl-induced FOS+/EGR-1+ double-positive nuclei fraction z-score [4]
CCCCCCCCC/C(=C\C1=C(C)C(=O)C(OC)=C(OC)C1=O)C(=O)O	1.13	1.74	0.583	2.34
CC(C)c1onc(-c2c(Cl)cccc2Cl)c1COc1ccc(/C=C/c2cccc(C(=O)O)c2)c(Cl)c1	1.3	-1.37	-1.08	-1.02
NC1(c2ccc(-c3nc4ccn5c(=O)[nH]nc5c4cc3-c3ccccc3)cc2)CCC1	-2.16	-1.08	-1.07	-0.197
COc1nc(-c2ccc3c(c2)OCO3)n(-c2ccc(NC(=O)CSc3ccccc3)cc2)n1 [SecinH3]	0.499	0.273	-0.0944	-0.195
CN(C/C=C/C#CC(C)(C)C)Cc1cccc2ccccc12 [Terbinafine HCl]	-0.774	-1.18	-1.4	-0.392
COc1ccc(C2=N[C@@H](c3ccc(Cl)cc3)[C@@H](c3ccc(Cl)cc3)N2C(=O)N2CCNC(=O)C2)c(OC(C)C)c1 [Nutlin-3]	-0.462	0.131	0.103	0.292
CC(C)(C#N)c1ccc(N2C(=O)OCc3cnc4ccc(-c5cnc6ccccc6c5)cc4c32)cc1	0.816	1	2.22	4.67
